For at least one entry, the source does not settle the construct or the ends of the probe. For some assays here: Negatives hold for the conditions tested. For some assays here: Weaker means in comparison with the reference protein, sequence or condition of that experiment. For some assays here: At least one verdict rests on a figure or table, not on a statement of the authors.
How the values were obtained:
beta-lactoglobulin [1] = target: beta-lactoglobulin (UniProt P02754); test: SPR; conditions: almost no affinity; White wine mimicking buffer: 1.5 mM KCl, 14.5 mM K acetate, 3.5 mM Mg acetate, 1.5 mM Ca acetate, 1 mM NaH2PO4, 4 mM KH2PO4, 11.5% (v/v) ethanol, pH 3.1; native protein; single-stranded DNA
insulin [2] = test: SPR; conditions: almost no affinity; White wine mimicking buffer: 1.5 mM KCl, 14.5 mM K acetate, 3.5 mM Mg acetate, 1.5 mM Ca acetate, 1 mM NaH2PO4, 4 mM KH2PO4, 11.5% (v/v) ethanol, pH 3.1; commercial protein; single-stranded DNA
[3] = target: lysozyme (hen (egg white)) (UniProt P00698); test: SPR; conditions: white wine mimicking buffer; White wine mimicking buffer: 1.5 mM KCl, 14.5 mM K acetate, 3.5 mM Mg acetate, 1.5 mM Ca acetate, 1 mM NaH2PO4, 4 mM KH2PO4, 11.5% (v/v) ethanol, pH 3.1; native protein; single-stranded DNA
beta-lactoglobulin [4] = target: beta-lactoglobulin (UniProt P02754); test: HPTLC-aptastaining; conditions: RP-8 and RP-18 plates, little cross-reactivity; White wine mimicking buffer: 1.5 mM KCl, 14.5 mM K acetate, 3.5 mM Mg acetate, 1.5 mM Ca acetate, 1 mM NaH2PO4, 4 mM KH2PO4, 11.5% (v/v) ethanol, pH 3.1; native protein; label: 5' ATTO 550; single-stranded DNA
insulin [5] = test: HPTLC-aptastaining; conditions: White wine mimicking buffer: 1.5 mM KCl, 14.5 mM K acetate, 3.5 mM Mg acetate, 1.5 mM Ca acetate, 1 mM NaH2PO4, 4 mM KH2PO4, 11.5% (v/v) ethanol, pH 3.1, commercial protein, label: 5' ATTO 550, single-stranded DNA
[6] = target: lysozyme (hen (egg white)) (UniProt P00698); test: HPTLC-aptastaining; conditions: RP-8 and RP-18 plates; White wine mimicking buffer: 1.5 mM KCl, 14.5 mM K acetate, 3.5 mM Mg acetate, 1.5 mM Ca acetate, 1 mM NaH2PO4, 4 mM KH2PO4, 11.5% (v/v) ethanol, pH 3.1; native protein; label: 5' ATTO 550; single-stranded DNA

Chains of the proteins cited; added tags and fusions are not shown. Residues count along the entry.
UniProt P02754, 17-178: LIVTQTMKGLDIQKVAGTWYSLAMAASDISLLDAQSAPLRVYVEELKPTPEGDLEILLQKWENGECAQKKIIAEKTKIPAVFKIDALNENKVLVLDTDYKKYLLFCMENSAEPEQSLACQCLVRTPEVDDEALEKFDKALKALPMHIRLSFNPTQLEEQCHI

Sequence | binding result (beta-lactoglobulin [1]) | binding result (insulin [2]) | Kd [3] [nM] | binding result (beta-lactoglobulin [4]) | binding result (insulin [5]; RP-8 and RP-18 plates, little cross-reactivity) | binding result (insulin [5]; RP-18W and silica gel plates) | binding result [6]
CATCCGTCACACCTGCTCCCTGCTAGAATTTTTCATGATCTTGCTGTATTTCTATTATGGTGTTCGGTCCCGTATC [LysApt5] | binds more weakly | binds more weakly | 17.9 | – | – | – | –
CATCCGTCACACCTGCTCTTGTTATTTTTTGTTGATGTAGGTTTGATGATGTATTTCCGGTGTTCGGTCCCGTATC [LysApt4] | – | – | 21.7 | – | – | – | –
CATCCGTCACACCTGCTCCCTGCTAGAATTTTTCATGATCTTGCTGTATTTCTATTATGGTGTTCGGTCCCGTATC [5'-ATTO 550-LysApt5] | – | – | – | binds more weakly | binds more weakly | no binding | binds
